According to publication PMC4330386 (Nucleic Acids Research, 2015):
These are yes or no findings as the source states them, for the method shown. In cells and extracts the contact can be indirect. Some results given as binding are weak or reduced against the parent protein; the word gives no strength. Sequences can lack the tags named with a protein.

T1: GST-Rad27 (yeast, UniProt P26793 1-382)
T1 sequence (looked up): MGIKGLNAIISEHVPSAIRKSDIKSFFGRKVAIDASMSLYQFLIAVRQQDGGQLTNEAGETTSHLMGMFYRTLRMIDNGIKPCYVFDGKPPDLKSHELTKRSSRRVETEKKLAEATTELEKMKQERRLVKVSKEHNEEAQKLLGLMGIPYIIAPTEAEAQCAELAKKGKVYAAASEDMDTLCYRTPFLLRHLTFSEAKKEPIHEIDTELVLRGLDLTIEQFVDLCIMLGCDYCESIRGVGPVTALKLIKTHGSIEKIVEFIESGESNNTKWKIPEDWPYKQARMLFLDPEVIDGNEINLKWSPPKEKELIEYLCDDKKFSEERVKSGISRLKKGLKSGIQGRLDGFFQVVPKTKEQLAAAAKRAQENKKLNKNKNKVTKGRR


Target: T1, GST-Rad27
Experiment: pull-down; crude E. coli extracts with GST-Rad27 and Mus81-6XHis derivatives (10 pmol each) mixed with glutathione-agarose beads; 25-mM Tris-HCl/pH 8.0, 100-mM NaCl, 10% glycerol, 0.1% NP-40; 4°C, 2 h; western blotting with anti-6XHis or anti-GST

binding	Binder
binds	Mus81-NF158 (domain or fragment, UniProt Q04149 1-158) MELSSNLKDLYIEWLQELVDGLTPKQEQLKIAYEKAKRNLQNAEGSFYYPTDLKKVKGIGNTIIKRLDTKLRNYCKIHHISPVEAPSLTQTSSTRPPKRTTTALRSIVNSCENDKNEAPEEKGTKKRKTRKYIPKKRSGGYAILLSLLELNAIPRGVS
binds	Mus81-6XHis (full-length Mus81 subunit) (protein, UniProt Q04149 1-632) MELSSNLKDLYIEWLQELVDGLTPKQEQLKIAYEKAKRNLQNAEGSFYYPTDLKKVKGIGNTIIKRLDTKLRNYCKIHHISPVEAPSLTQTSSTRPPKRTTTALRSIVNSCENDKNEAPEEKGTKKRKTRKYIPKKRSGGYAILLSLLELNAIPRGVSKEQIIEVAGKYSDHCMTPNFSTKEFYGAWSSIAALKKHSLVLEEGRPKRYSLTEEGVELTKSLKTADGISFPKENEEPNEYSVTRNESSEFTANLTDLRGEYGKEEEPCDINNTSFMLDITFQDLSTPQRLQNNVFKNDRLNSQTNISSHKLEEVSDDQTVPDSALKAKSTIKRRRYNGVSYELWCSGDFEVFPIIDHREIKSQSDREFFSRAFERKGMKSEIRQLALGDIIWVAKNKNTGLQCVLNTIVERKRLDDLALSIRDNRFMEQKNRLEKSGCEHKYYLIEETMSGNIGNMNEALKTALWVILVYYKFSMIRTCNSDETVEKIHALHTVISHHYSQKDLIVIFPSDLKSKDDYKKVLLQFRREFERKGGIECCHNLECFQELMGKGDLKTVGELTIHVLMLVKGISLEKAVAIQEIFPTLNKILMAYKTCSSEEEAKLLMFNVLGDAPGAKKITKSLSEKIYDAFGKL
binds	Mus81-NF120_(Δ21–22) (domain or fragment, UniProt Q04149 1-120) MELSSNLKDLYIEWLQELVDTPKQEQLKIAYEKAKRNLQNAEGSFYYPTDLKKVKGIGNTIIKRLDTKLRNYCKIHHISPVEAPSLTQTSSTRPPKRTTTALRSIVNSCENDKNEAPE
binds	Mus81-NF316 (domain or fragment, UniProt Q04149 1-316) MELSSNLKDLYIEWLQELVDGLTPKQEQLKIAYEKAKRNLQNAEGSFYYPTDLKKVKGIGNTIIKRLDTKLRNYCKIHHISPVEAPSLTQTSSTRPPKRTTTALRSIVNSCENDKNEAPEEKGTKKRKTRKYIPKKRSGGYAILLSLLELNAIPRGVSKEQIIEVAGKYSDHCMTPNFSTKEFYGAWSSIAALKKHSLVLEEGRPKRYSLTEEGVELTKSLKTADGISFPKENEEPNEYSVTRNESSEFTANLTDLRGEYGKEEEPCDINNTSFMLDITFQDLSTPQRLQNNVFKNDRLNSQTNISSHKLEEVSDD
binds	Mus81-NF120_(Δ21–24) (domain or fragment, UniProt Q04149) MELSSNLKDLYIEWLQELVDKQEQLKIAYEKAKRNLQNAEGSFYYPTDLKKVKGIGNTIIKRLDTKLRNYCKIHHISPVEAPSLTQTSSTRPPKRTTTALRSIVNSCENDKNEAPE
no binding (tested: 10 pmol each)	Mus81-NF80 (domain or fragment, UniProt Q04149 1-80) MELSSNLKDLYIEWLQELVDGLTPKQEQLKIAYEKAKRNLQNAEGSFYYPTDLKKVKGIGNTIIKRLDTKLRNYCKIHHI
no binding (tested: 10 pmol each)	Mus81-NF34–120 (domain or fragment, UniProt Q04149 34-120) EKAKRNLQNAEGSFYYPTDLKKVKGIGNTIIKRLDTKLRNYCKIHHISPVEAPSLTQTSSTRPPKRTTTALRSIVNSCENDKNEAPE
no binding (tested: 10 pmol each)	Mus81_(Δ120N) (the mutant Mus81 subunit devoid of the N-terminal 120 aa residues) (domain or fragment, UniProt Q04149 121-632) EKGTKKRKTRKYIPKKRSGGYAILLSLLELNAIPRGVSKEQIIEVAGKYSDHCMTPNFSTKEFYGAWSSIAALKKHSLVLEEGRPKRYSLTEEGVELTKSLKTADGISFPKENEEPNEYSVTRNESSEFTANLTDLRGEYGKEEEPCDINNTSFMLDITFQDLSTPQRLQNNVFKNDRLNSQTNISSHKLEEVSDDQTVPDSALKAKSTIKRRRYNGVSYELWCSGDFEVFPIIDHREIKSQSDREFFSRAFERKGMKSEIRQLALGDIIWVAKNKNTGLQCVLNTIVERKRLDDLALSIRDNRFMEQKNRLEKSGCEHKYYLIEETMSGNIGNMNEALKTALWVILVYYKFSMIRTCNSDETVEKIHALHTVISHHYSQKDLIVIFPSDLKSKDDYKKVLLQFRREFERKGGIECCHNLECFQELMGKGDLKTVGELTIHVLMLVKGISLEKAVAIQEIFPTLNKILMAYKTCSSEEEAKLLMFNVLGDAPGAKKITKSLSEKIYDAFGKL
binds	Mus81-NF114 (domain or fragment, UniProt Q04149 1-114) MELSSNLKDLYIEWLQELVDGLTPKQEQLKIAYEKAKRNLQNAEGSFYYPTDLKKVKGIGNTIIKRLDTKLRNYCKIHHISPVEAPSLTQTSSTRPPKRTTTALRSIVNSCEND
binds	Mus81-NF474 (domain or fragment, UniProt Q04149 1-474) MELSSNLKDLYIEWLQELVDGLTPKQEQLKIAYEKAKRNLQNAEGSFYYPTDLKKVKGIGNTIIKRLDTKLRNYCKIHHISPVEAPSLTQTSSTRPPKRTTTALRSIVNSCENDKNEAPEEKGTKKRKTRKYIPKKRSGGYAILLSLLELNAIPRGVSKEQIIEVAGKYSDHCMTPNFSTKEFYGAWSSIAALKKHSLVLEEGRPKRYSLTEEGVELTKSLKTADGISFPKENEEPNEYSVTRNESSEFTANLTDLRGEYGKEEEPCDINNTSFMLDITFQDLSTPQRLQNNVFKNDRLNSQTNISSHKLEEVSDDQTVPDSALKAKSTIKRRRYNGVSYELWCSGDFEVFPIIDHREIKSQSDREFFSRAFERKGMKSEIRQLALGDIIWVAKNKNTGLQCVLNTIVERKRLDDLALSIRDNRFMEQKNRLEKSGCEHKYYLIEETMSGNIGNMNEALKTALWVILVYYKFSM
no binding (tested: 10 pmol each)	Mus81-NF27–120 (domain or fragment, UniProt Q04149 27-120) EQLKIAYEKAKRNLQNAEGSFYYPTDLKKVKGIGNTIIKRLDTKLRNYCKIHHISPVEAPSLTQTSSTRPPKRTTTALRSIVNSCENDKNEAPE
no binding (tested: 10 pmol each)	Mus81-NF41–120 (domain or fragment, UniProt Q04149 41-120) QNAEGSFYYPTDLKKVKGIGNTIIKRLDTKLRNYCKIHHISPVEAPSLTQTSSTRPPKRTTTALRSIVNSCENDKNEAPE
binds weakly	Mus81-NF120_(Δ21–26) (domain or fragment, UniProt Q04149) MELSSNLKDLYIEWLQELVDEQLKIAYEKAKRNLQNAEGSFYYPTDLKKVKGIGNTIIKRLDTKLRNYCKIHHISPVEAPSLTQTSSTRPPKRTTTALRSIVNSCENDKNEAPE
binds	Mus81-NF21–120 (domain or fragment, UniProt Q04149 21-120) GLTPKQEQLKIAYEKAKRNLQNAEGSFYYPTDLKKVKGIGNTIIKRLDTKLRNYCKIHHISPVEAPSLTQTSSTRPPKRTTTALRSIVNSCENDKNEAPE
binds	Mus81-NF120T23 (domain or fragment, UniProt Q04149 1-120) MELSSNLKDLYIEWLQELVDGLAPKQEQLKIAYEKAKRNLQNAEGSFYYPTDLKKVKGIGNTIIKRLDTKLRNYCKIHHISPVEAPSLTQTSSTRPPKRTTTALRSIVNSCENDKNEAPE
binds	Mus81-NF120END (domain or fragment, UniProt Q04149 1-120) MELSSNLKDLYIEWLQELVDGLTPKQEQLKIAYEKAKRNLQNAEGSFYYPTDLKKVKGIGNTIIKRLDTKLRNYCKIHHISPVEAPSLTQTSSTRPPKRTTTALRSIVNSCAAAKNEAPE
binds	Mus81-NF120 (the N-terminal 120 aa fragment of Mus81) (domain or fragment, UniProt Q04149 1-120) MELSSNLKDLYIEWLQELVDGLTPKQEQLKIAYEKAKRNLQNAEGSFYYPTDLKKVKGIGNTIIKRLDTKLRNYCKIHHISPVEAPSLTQTSSTRPPKRTTTALRSIVNSCENDKNEAPE
binds	Mus81-NF120SCE (domain or fragment, UniProt Q04149 1-120) MELSSNLKDLYIEWLQELVDGLTPKQEQLKIAYEKAKRNLQNAEGSFYYPTDLKKVKGIGNTIIKRLDTKLRNYCKIHHISPVEAPSLTQTSSTRPPKRTTTALRSIVNAAANDKNEAPE
binds weakly	Mus81-NF107 (domain or fragment, UniProt Q04149 1-107) MELSSNLKDLYIEWLQELVDGLTPKQEQLKIAYEKAKRNLQNAEGSFYYPTDLKKVKGIGNTIIKRLDTKLRNYCKIHHISPVEAPSLTQTSSTRPPKRTTTALRSI
binds weakly	Mus81-NF100 (domain or fragment, UniProt Q04149 1-100) MELSSNLKDLYIEWLQELVDGLTPKQEQLKIAYEKAKRNLQNAEGSFYYPTDLKKVKGIGNTIIKRLDTKLRNYCKIHHISPVEAPSLTQTSSTRPPKRT
